“And” between values parts separate entries of the source, which are not always exact repeats. Equal entries are not always repeated. This is one part of the list. Repeats in this data set agree poorly, so a single value says little.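 HEK293T cells were given each compound shortly before transfection with a reporter in which red mCherry is followed by the SARS-CoV-2 frameshift element and then GFP in the −1 frame, so GFP appears only after frameshifting.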

Experiment [1] has as its system SARS-CoV-2 -1 PRF reporter mCherry-FSE-GFP(-1). Nature of the experiment: mCherry (red) intensity as percent of control; higher = higher upstream reporter expression. The following applies: 10 µM; 24 h; HEK293T.
For experiment [2] the test system is unchanged. The experiment in a line: percent effect, decrease of GFP/mCherry ratio (-1 PRF reporter) relative to controls; higher = stronger frameshift inhibition. To be noted: 10 µM; 24 h; HEK293T.

For the compound `CCCCC(CC)COC(=O)c1ccccc1O` (stereo not given) [octisalate], the mCherry in experiment [1] came out at 112%. For the same compound, the percent effect in experiment [2] is -8.32%.

As for `Cc1cc(NS(=O)(=O)c2ccc(N)cc2)no1` [Sulfamethoxazole], in experiment [1], the mCherry was determined as 41.2%. For the same compound, in experiment [2], the percent effect is -3.14%.

`O=[N+]([O-])c1c(Cl)cccc1-c1c[nH]cc1Cl` [pyrrolnitrin]: the mCherry in experiment [1] was 94.3%. In addition, in experiment [2], the percent effect is -3.82%.

`C[C@H](NC(=O)[C@@H]1CCC(=O)N1)C(=O)N[C@@H](CCCCN)C(=O)N[C@@H](CO)C(=O)N[C@@H](CCC(N)=O)C(=O)NCC(=O)NCC(=O)N[C@@H](CO)C(=O)N[C@@H](CC(N)=O)C(=O)O` [nonathymulin] displayed a mCherry in experiment [1] of 108%. The percent effect in experiment [2] is -5.98%.

Turning to `NC(=O)CN1Cc2ccccc2OC1=O` [caroxazone], the mCherry in experiment [1] is 108%. Also, the percent effect in experiment [2] is -2.5%.

For `COc1cc(Cl)nc(OC)n1`, in experiment [1], the mCherry turned out to be 123%. In addition, the percent effect in experiment [2] was -4.04%.

In turn, `CC(=O)N(CC(O)CO)c1c(I)c(C(=O)NCC(O)CO)c(I)c(C(=O)NCC(O)CO)c1I` (stereo not given) came in with a mCherry in experiment [1] of 104%. In addition, in experiment [2], the percent effect was -0.306%.

Turning to `COCCCC/C(=N\OCCN)c1ccc(C(F)(F)F)cc1` [fluvoxamine], the mCherry in experiment [1] came to 118%. Also, the percent effect in experiment [2] was -1.88%.

`Nc1[nH]cnc2ncnc1-2` [Adenine]: the mCherry in experiment [1] was found to be 86.3%. Further, the percent effect in experiment [2] is -4.42%.

In experiment [1], `CC(=O)N(CC(O)CN(C(C)=O)c1c(I)c(C(=O)NCC(O)CO)c(I)c(C(=O)NCC(O)CO)c1I)c1c(I)c(C(=O)NCC(O)CO)c(I)c(C(=O)NCC(O)CO)c1I` (stereo not given) [iodixanol] returned a mCherry of 109%. The percent effect in experiment [2] is 1.02%.

Consider `NCCCC[C@H](NC(=O)[C@@H]1CCCN1C(=O)[C@@H]1CSSC[C@H](N)C(=O)N[C@@H](Cc2ccccc2)C(=O)N[C@@H](Cc2ccccc2)C(=O)N[C@@H](CCC(N)=O)C(=O)N[C@@H](CC(N)=O)C(=O)N1)C(=O)NCC(N)=O` [Felypressin], for which, in experiment [1], the mCherry came out at 101%. Moreover, the percent effect in experiment [2] was -1.72%.

Compound `CO[C@H](C(=O)[C@@H](O)[C@@H](C)O)[C@@H]1Cc2cc3cc(O[C@H]4C[C@@H](O[C@H]5C[C@@H](O)[C@H](O)[C@@H](C)O5)[C@H](O)[C@@H](C)O4)c(C)c(O)c3c(O)c2C(=O)[C@H]1O[C@H]1C[C@@H](O[C@H]2C[C@@H](O[C@H]3C[C@](C)(O)[C@H](O)[C@@H](C)O3)[C@@H](O)[C@@H](C)O2)[C@H](O)[C@@H](C)O1` [Plicamycin] returned a mCherry in experiment [1] of 555%. In addition, the percent effect in experiment [2] was -13.2%.

For `Nc1nc2c(ncn2COC(CO)CO)c(=O)[nH]1`, the mCherry in experiment [1] came out at 90%. The percent effect in experiment [2] is -5.14%.

In experiment [1], `CC[C@H](C)[C@H](N)C1=N[C@H](C(=O)N[C@@H](CC(C)C)C(=O)N[C@H](CCC(=O)O)C(=O)N[C@H](C(=O)N[C@H]2CCCCNC(=O)[C@H](CC(N)=O)NC(=O)[C@@H](CC(=O)O)NC(=O)[C@H](Cc3cnc[nH]3)NC(=O)[C@@H](Cc3ccccc3)NC(=O)[C@H]([C@@H](C)CC)NC(=O)[C@@H](CCCN)NC2=O)[C@@H](C)CC)CS1` [bacitracin] returned a mCherry of 100%. For the same compound, the percent effect in experiment [2] is -10.6%.

Take `CC(=O)c1ccc2c(c1)N(CCCN(C)C)c1ccccc1S2`: the mCherry in experiment [1] amounted to 101%. The percent effect in experiment [2] was -3.27%.

In turn, `CCN(CC)CCOC(=O)C1(c2ccccc2)CCCC1` [caramiphen] registered a mCherry in experiment [1] of 114%. In addition, in experiment [2], the percent effect is -2.71%.

`CCN[C@@H]1C[C@H](N)[C@@H](O[C@H]2OC(CN)=CC[C@H]2N)[C@H](O)[C@H]1O[C@H]1OC[C@](C)(O)[C@H](NC)[C@H]1O` [netilmicin]: the mCherry in experiment [1] is 73.1%. Besides, the percent effect in experiment [2] was -0.738%.

In the case of `COc1ccc2cc1Oc1ccc(cc1)C[C@H]1c3c(cc4c(c3Oc3cc5c(cc3OC)CCN(C)[C@@H]5C2)OCO4)CCN1C`, in experiment [1], the mCherry came to 36.2%. For the same compound, in experiment [2], the percent effect was -1.25%.

Compound `NCC[C@H](O)C(=O)N[C@@H]1C[C@H](N)[C@@H](O[C@H]2O[C@H](CN)CC[C@H]2N)[C@H](O)[C@H]1O[C@H]1O[C@H](CO)[C@@H](O)[C@H](N)[C@H]1O` [arbekacin] returned a mCherry in experiment [1] of 107%. Besides, the percent effect in experiment [2] was -2.38%.

In experiment [1], `CC[C@H](C)[C@@H]1NC(=O)[C@H](Cc2ccc(OC)cc2)NC(=O)CCCSC[C@@H](C(=O)N2CCC[C@H]2C(=O)N[C@@H](CC(C)C)C(=O)NCC(N)=O)NC(=O)[C@H](CC(N)=O)NC(=O)[C@H](CCC(N)=O)NC1=O` [carbetocin] showed a mCherry of 96.2%. In addition, the percent effect in experiment [2] was -4.89%.

As for `Cc1cccc(C)c1OCC(=O)N[C@@H](Cc1ccccc1)[C@@H](O)C[C@H](Cc1ccccc1)NC(=O)[C@H](C(C)C)N1CCCNC1=O` [lopinavir], the mCherry in experiment [1] is 103%. The percent effect in experiment [2] was -3.65%.

As for `C=C1/C(=C\C=C2/CCC[C@]3(C)[C@@H]([C@H](C)/C=C/[C@H](C)C(C)C)CC[C@@H]23)C[C@@H](O)C[C@@H]1O` [doxercalciferol], the mCherry in experiment [1] came out at 103%. In addition, the percent effect in experiment [2] was -3.66%.

As to `COC(=O)Nc1nc2cc(C(=O)c3ccc(F)cc3)ccc2[nH]1` [flubendazole], the mCherry in experiment [1] was determined as 27.9%. Besides, in experiment [2], the percent effect was -8.4%.

For `CC(C)NC[C@H](O)c1ccc(O)c(O)c1` [levisoprenaline], the mCherry in experiment [1] came to 91.1%. Also, the percent effect in experiment [2] is -1.24%.

For the compound `NC(=O)[C@@H]1CCCN1C(=O)[C@H](Cc1c[nH]cn1)NC(=O)[C@@H]1CCC(=O)N1` [protirelin], in experiment [1], the mCherry was found to be 58.5%. For the same compound, the percent effect in experiment [2] was -12.2%.

Regarding `Nc1nc2c(ncn2COC(CO)CO)c(=O)[nH]1` [ganciclovir], in experiment [1], the mCherry is 111%. In addition, in experiment [2], the percent effect is -12.5%.

Consider `c1ccc(-c2cc(CCC3CCNCC3)c3ccccc3n2)cc1` [pipequaline], for which the mCherry in experiment [1] worked out at 104%. Besides, in experiment [2], the percent effect is -4.3%.

In turn, `Nc1ccc(C(=O)O)cc1` had a mCherry in experiment [1] of 104%. In addition, the percent effect in experiment [2] was -5.19%.

For `CC1Cc2ccccc2N1NC(=O)c1ccc(Cl)c(S(N)(=O)=O)c1` (stereo not given) [indapamide], the mCherry in experiment [1] is 96.5% and 110%. Also, in experiment [2], the percent effect is -1.93% and -12.9%.

`Cc1cccc(OCC(O)CNC(C)C)c1` (stereo not given) [toliprolol] came in with a mCherry in experiment [1] of 112%. Besides, in experiment [2], the percent effect was -14.1%.

The record behind these values is the supplement of paper PMC8256030.
